Earlier results as cited in patent publication US5753636A, “Injection solution for intramuscular and subcutaneous administration to animals” (priority 1993, dated 1998).

Test system: injection site
Conditions: in vivo; cited from earlier work

CC(=O)N(C)C [N,N-dimethylacetalide]
local tolerability / irritation: highly irritant and have haemolytic effects
